42 sequences from article PMC7819943, “Rice protein-binding microarrays: a tool to detect cis-acting elements near promoter regions in rice” can be followed below.

Sequences of proteins named here, by UniProt entry; tags and fusion partners are left off.
UniProt Q0JBA9, entry or part of it: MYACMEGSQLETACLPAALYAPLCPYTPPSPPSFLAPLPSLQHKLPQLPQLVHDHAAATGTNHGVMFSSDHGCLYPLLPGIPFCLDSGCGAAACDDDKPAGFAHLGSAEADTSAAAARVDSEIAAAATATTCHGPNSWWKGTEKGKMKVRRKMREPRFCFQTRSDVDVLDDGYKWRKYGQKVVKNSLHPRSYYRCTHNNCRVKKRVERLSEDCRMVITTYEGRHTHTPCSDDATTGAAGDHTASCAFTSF

This is one part of the list.

The target of the experiment is OsWRKY34 (Oryza sativa, UniProt Q0JBA9 1-250). As to the kind of experiment: protein-binding microarray (RPBM); PBS, 2% BSA, 51.3 ng/ul salmon testes DNA, 50 uM zinc acetate, 200 nM TF, 25 C, 1 h; high values mean tight binding. The settings on record: protein: recombinant; tags: N-terminal polyhistidine and DsRed monomer fusion (pET32a); label: CyDye5-dUTP incorporated in the synthesized complementary strand; 3' TTTTT single-stranded linker to array surface; dsDNA, one strand shown. The method, boiled down:
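Binding signal here means per-feature fluorescence intensity in arbitrary units. The values were read on an Axon 4000B scanner after a custom Agilent array, double-stranded by primer extension with Cy5-dUTP, was incubated with 200 nM protein at 25 °C for 1 h in PBS with 2% BSA, salmon testes DNA and 50 µM zinc acetate, then washed. The proteins were transcription factors with an N-terminal polyhistidine tag and DsRed, expressed in E. coli BL21-CodonPlus and purified on Ni–NTA.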
As for “TCCATCTCTGGATTTCTGTCCATATTCTCTTTGTTAGCCTCGGAGTCACCTAGTGCAG”, the binding signal was 9640 fluorescence intensity (a.u.).

“AATACTGCTGGTATTAGCTAGGCGTTGATAGTGGCCGGGGCGGAGTCACCTAGTGCAG”: the binding signal is 8660 fluorescence intensity (a.u.).

Turning to “CCCTCTCTCTCTTTCGTTTTTTTTGGATTTTTAGTGAATACGGAGTCACCTAGTGCAG”, the binding signal is 9040 fluorescence intensity (a.u.).

Regarding “TTCTTGGGAGATTTGGATCATATAACCTCCGTTTAGATTTCGGAGTCACCTAGTGCAG”, the binding signal was 8940 fluorescence intensity (a.u.).

As to “CGTCGCATTGTTCATCGGGTCCCTCGTGTCCATCCCTACACGGAGTCACCTAGTGCAG”, the binding signal is 11600 fluorescence intensity (a.u.).

On to “GGTTAGGGTCATCTCGCCACCACCCATTTTCCTCTCAAACCGGAGTCACCTAGTGCAG”, for which the binding signal is 12200 fluorescence intensity (a.u.).

In the case of “CAATATTTTATCCCTAATCTTCTTATAGCCTGTATATTCTCGGAGTCACCTAGTGCAG”, the binding signal was 10000 fluorescence intensity (a.u.).

For the sequence “AATTGACGACGTTGACCTCGCTGTTGAGCGTTGACCCGGCCGGAGTCACCTAGTGCAG”, the binding signal is 13300 fluorescence intensity (a.u.).

Take “TCTCGGGCTGGGCATCGCATCTTTAGAATTGATTGAGTGACGGAGTCACCTAGTGCAG”: the binding signal is 9860 fluorescence intensity (a.u.).

Consider “CGCATCAACCAGACAGCCACTTTACCACTAACTACGCAATCGGAGTCACCTAGTGCAG”, for which the binding signal was 8830 fluorescence intensity (a.u.).

Regarding “TATACTTCCTCTATCATAGTTTTACACTGTTTATATTTAACGGAGTCACCTAGTGCAG”, the binding signal is 8480 fluorescence intensity (a.u.).

On to “TCCATTAGTCGCAACTGCCATGCATGATTCTGCACCTTGACGGAGTCACCTAGTGCAG”, for which the binding signal is 8150 fluorescence intensity (a.u.).

For the sequence “ACCTTTCTGGCTTGGACGGAGGTGCCGTTTATCTCTACCACGGAGTCACCTAGTGCAG”, the binding signal was 9050 fluorescence intensity (a.u.).

As to “CCTACACTGTTGTTCTTTTAGATTGAGACGTCCGATTTTTCGGAGTCACCTAGTGCAG”, the binding signal is 9000 fluorescence intensity (a.u.).

As to “TGGTCTAGCGGCAAGCGTTCAACGTATTTGTCCCACCTAACGGAGTCACCTAGTGCAG”, the binding signal is 8860 fluorescence intensity (a.u.).

As to “ATCATCGCTTCTGATCAACCCATTCACCGGCACGGCCATGCGGAGTCACCTAGTGCAG”, the binding signal was 10200 fluorescence intensity (a.u.).

In the case of “CCCTTCGTCTCCGCCGCCGCCGGAATCGGGCCTCGCCATCCGGAGTCACCTAGTGCAG”, the binding signal was 8210 fluorescence intensity (a.u.).

With “GCACCACCGTCTCCGCCTCCGCGCCGCCGCCGTCGTCTCCCGGAGTCACCTAGTGCAG”, the binding signal was 11300 fluorescence intensity (a.u.).

Regarding “TGTTTTTAGCTGCATTCTGCTATTCTTGTGGCAAACCAATCGGAGTCACCTAGTGCAG”, the binding signal is 8820 fluorescence intensity (a.u.).

Consider “AGCTGTATTTCTTCAGTTTCATAAATAGTTTTGACCTTTGCGGAGTCACCTAGTGCAG”, for which the binding signal was 8410 fluorescence intensity (a.u.).

Consider “TGTTATCCAAAGTACTGCAGGTCTGACCTCATGTTCTACTCGGAGTCACCTAGTGCAG”, for which the binding signal is 10100 fluorescence intensity (a.u.).

“TGGCAGCTTTGGTTCAACCTCGTCGATCTCTATCTCTCTCCGGAGTCACCTAGTGCAG”: the binding signal is 8920 fluorescence intensity (a.u.).

For “TGCCGTGCCAACTGAGCACCCACGTTGCATCACCGCTTACCGGAGTCACCTAGTGCAG”, the binding signal was 9900 fluorescence intensity (a.u.).

Take “AATATTCGGCTCGTTTACTGTTTCTTTGTGTTTTGTTTCCCGGAGTCACCTAGTGCAG”: the binding signal was 10900 fluorescence intensity (a.u.).

For “CAGCACCACCAGCTCTCGCCTCTTGCCAATGCCAATGTATCGGAGTCACCTAGTGCAG”, the binding signal is 8390 fluorescence intensity (a.u.).

For the sequence “CTCAAAATCTCCGTCTGGTAATTAGTTTTCTGTGATTTTTCGGAGTCACCTAGTGCAG”, the binding signal was 10200 fluorescence intensity (a.u.).

As to “CTCTCGCGTTTCTTTTGCTGGATTGGGGCGTTCTTGGGAGCGGAGTCACCTAGTGCAG”, the binding signal is 14500 fluorescence intensity (a.u.).

Take “AATTGCGTATTCTACTCTATCTTTGTCAAATCACTCCACGCGGAGTCACCTAGTGCAG”: the binding signal is 9120 fluorescence intensity (a.u.).

On to “ATTTCTGCAGACCCATTTTGCTTTTGAAACACTGCTGATTCGGAGTCACCTAGTGCAG”, for which the binding signal is 9790 fluorescence intensity (a.u.).

“GCCTCATCTTTTCATTTATTCTTATGCTTATCAACCAAAACGGAGTCACCTAGTGCAG”: the binding signal was 16100 fluorescence intensity (a.u.).

For the sequence “TGACTTTCTCGGATTTAATGCGTGACTTTTCATTCTTCCACGGAGTCACCTAGTGCAG”, the binding signal was 10100 fluorescence intensity (a.u.).

“TTCACTTTGGTCCAGGTTTTCTTACCTTCTACTCCCTCCGCGGAGTCACCTAGTGCAG”: the binding signal was 11400 fluorescence intensity (a.u.).

As for “CACTTCTGCACACTTCCACGGTAACATGTTTTACGGTTTTCGGAGTCACCTAGTGCAG”, the binding signal is 12100 fluorescence intensity (a.u.).

As to “CCCGCGTCAGCCCCGCCATCACCGGTCCATCGCCGCCCGCCGGAGTCACCTAGTGCAG”, the binding signal was 9830 fluorescence intensity (a.u.).

For “ACTTTGGCACATTTCCATTTACCTGAGCCTACTATTCAAACGGAGTCACCTAGTGCAG”, the binding signal is 9740 fluorescence intensity (a.u.).

For “GCTCGCACGTACGCTTCCTTCCGCTTGATCTGCTGCCAACCGGAGTCACCTAGTGCAG”, the binding signal is 11100 fluorescence intensity (a.u.).

For the sequence “GTCGATTTGTTCTCATAAAATTTCCTCTTTTTTGTTTGTTCGGAGTCACCTAGTGCAG”, the binding signal was 15200 fluorescence intensity (a.u.).

As to “GAATATTTTCGGGTGGCATATCCTCTGAAGCTTCTGCAGCCGGAGTCACCTAGTGCAG”, the binding signal was 8470 fluorescence intensity (a.u.).

In the case of “ACATGTTCGTTTTTCTATTTCATTCTGAATGGGTTGTATTCGGAGTCACCTAGTGCAG”, the binding signal was 9700 fluorescence intensity (a.u.).

On to “TATAGGTATTCACTACCTTATCATTTATTCATACCTTGTTCGGAGTCACCTAGTGCAG”, for which the binding signal is 8060 fluorescence intensity (a.u.).

As to “CGCTCCGCCCACCACCCGCTGCCGCTTCATTTCACGCTGCCGGAGTCACCTAGTGCAG”, the binding signal was 9230 fluorescence intensity (a.u.).

As to “CCTTTTTTTTATATATACGTTGATATTATTTGTCCTTTTTCGGAGTCACCTAGTGCAG”, the binding signal is 10000 fluorescence intensity (a.u.).
